From US10933068B2, “Modulators of DUX4 for regulation of muscle function” (GENEA BIOCELLS USA (HOLDINGS), INC., priority 2016, dated 2021)
At least one structure is not confirmed: it was looked up by name or label, or the drawing left a doubt.

Experiments:
Assay type in all cases: cell-based, human
[1] = tested on: DUX4 reporter in the FSHD-affected Genea049 reporter cell line; test: DUX4 reporter, high-content imaging; details: added for 24 hours at the end of the myoblast stage; analyzed 7 days later
Description: (§1) Lentivirus constructs were used to stably integrate a DUX4 reporter into human embryonic stem cell lines (FIG. 5). Cells were plated in collagen I-coated 12-well plates (Corning BIOCOAT™-Cat #354500) in M2 hESC maintenance medium (Genea Biocells). Since cell lines grow at different rates and may optimally transduce at distinct cell densities, each line was plated at four different cell densities and transduced for 2 hours using a vector preparations diluted at 1:20 (50 ul/ml) in M2 medium containing 8 ug/ml polybrene. A pilot “kill curve” was established using the same non-transfected cell lines to help define the baseline antibiotic concentration required during the selection process. Based on the results, all transduced cells were selected with 300 ug/ml of G418 for at least 10 days. The antibiotic selected cells were further expanded in M2 (2× T175 flasks for each cell line) and samples were cryopreserved as stocks of 0.5 to 1×10^6 cells/vial.
In another example, Genea049 reporter cell line was differentiated according to Example 1 and the compounds were added for 24 hours at the end of the myoblast stage. Cells were further differentiated to myotubes and analyzed 7 days later at the end of the myotube stage (see FIG. 2) by fixation, counterstaining nuclei with Hoechst and visualizing nuclei and the reporter by high-content imaging.

[2] = tested on: DUX4 reporter in the FSHD-affected Genea049 reporter cell line; test: DUX4 reporter, time-lapse video fluorescence microscopy; details: added for 24 hours at the beginning of the myoblast stage; analyzed continuously
Description: as §1
In another example, experiments are set up according to Example 1 with FSHD-affected DUX4 reporter cells being cultured in collagen I-coated 96-well plates. […] The cells are continuously observed by time-lapse video microscopy (IncuCyte Zoom, Essen Bioscience) and the number of GFP-positive (DUX4-expressing) nuclei are detected and quantified throughout the culture period. […]

DUX4-GFP reporter = test: Chemically induced DUX4-GFP reporter induction (ASK10 and analogs)
Text: Cells were transduced with a lentivirus coding for a synthetic DUX4-responsive promoter driving a nuclear turboGFP reporter gene ([…] et al., 2015) and selected using G418 antibiotic (Thermo Fisher). Myogenic differentiation was induced using the Genea Biocells muscle differentiation protocol (Caron et al., 2016). […] Media was changed every other day for 10 days. Myogenic precursors were then re-seeded by treatment with Passaging Solution (Genea Biocells) followed by Neutralizing Solution (Genea Biocells), were pelleted, and were plated at 2500 cells/cm2 in Stage 2 Myoblast Medium (Genea Biocells). […] After treatment, confluent myoblasts were switched to Stage 3 Myotube Medium (Genea Biocells). Cells were imaged hourly for phase and DUX4-GFP reporter fluorescence with the Incucyte live cell imaging system (Essen Bioscience) and Incucyte analysis software reported GFP+ events/mm2. […] Nuclei were quantified using the In Cell 6000 imaging and analysis suite. The system as described herein can be used as a sensitive low-, medium- or high-throughput screening assay to identify compounds that suppress DUX4 following an experimental procedure as outlined in FIG. 19. […] Test compounds are added either at the beginning of differentiation stage 2 or stage 3 and may be present throughput the experiment.

## Nc1ncn([C@H]2C[C@H](O)[C@@H](CO)O2)c(=O)n1 [ASK10, decitabine]
[1]
  DUX4-positive cells: significant increase
[2]
  DUX4-positive cells: significant increase
DUX4-GFP reporter; DUX4-GFP positive cells per well, FIG. 16A
  DUX4 expression activation versus concentration: dose-dependent
DUX4-GFP reporter; exposure time approximately 1 to 120 hours, FIGS. 15A-15B
  DUX4 expression activation versus exposure time: exposure time-dependent
DUX4-GFP reporter; vehicle pre-treatment, FIG. 18
  GFP+ events over time: increases for a period of time before decreasing
